The record followed here is the supplement of paper PMC12764529.

Data set [1] can be described thus: folding stability dG unfold from trypsin proteolysis; higher = more stable. The procedure, abridged:
(§1)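 Mini-proteins designed to be under 80 residues and free of cysteine were carried in a PA-tagged cDNA display construct and digested with trypsin and with chymotrypsin. Each protease was applied at 11 threefold-diluted concentrations, alongside a no-protease condition, before sequencing. K50 came from Bayesian fitting of the sequencing counts, and unfolding free energy was obtained by comparing it with a sequence-predicted unfolded-state K50 and a shared folded-state K50, for each protease separately or for both together. Designs were retained only if their AlphaFold2 dimer inter-PAE exceeded 15.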

Data set [2] can be described thus: folding stability dG unfold from chymotrypsin proteolysis; higher = more stable. The procedure, abridged:
as §1

Data set [3] is described as follows: folding stability dG unfold (combined trypsin and chymotrypsin); higher = more stable. An outline of the steps: as §1

± gives the half width of the 95% confidence interval. For many entries, trypsin and chymotrypsin gave values far apart.

In the case of “KKKKPKKKTIKLKLKEGEEIEIKLENGEIFKIKKIKKKNGKLYIEIERKDGKIEKIEIKVKTKEDLLKAIKS [r1_66_TrROS_Hall]”, the figures for the “folding stability dG unfold” value in data set [1], in data set [2] and in data set [3] were 0.441 ± 0.28 kcal/mol, 2.74 ± 0.26 kcal/mol and 1.74 ± 0.67 kcal/mol, respectively.
Taken in the same sequence, the figures for “SAGGSAKARVLDPHPTSSIVRIEFPGSGEVVEIPFTGTIGELEKYIRDLAEKYNFPIEVEISPPSESAGGSA [r2_161_TrMRF]” were -0.564 ± 0.38 kcal/mol, 2.16 ± 0.039 kcal/mol and 1.8 ± 0.1 kcal/mol.
In the same order, the values of “SAGGMITPEEIQDLEVKPVPPEVYKATGYIEVTLYGPGGEPIATIKVKVDIKSLVKPNGPVLGKEKLISAGG [r13_864_JUSTAS]” are -0.262 ± 0.26 kcal/mol, 3.25 ± 0.075 kcal/mol and 2.67 ± 0.27 kcal/mol.
In the same order, the values of “SAGGSAGGMTVTLPLDEIEALAKAGLIEEVRIERDENGLLRVTLRVRPPPPLSAEQLAELRKKASAGGSAGG [r6_278_TrROS_Hall]” are 1.26 ± 0.083 kcal/mol, 3.6 ± 0.21 kcal/mol and 2.1 ± 0.33 kcal/mol.
As for “SAGGSAGGSAKKKKYLIKVKNEDGSEYTIEIDLSEDEIKELLEKKFGKKITKVEIYEKEDLKSAGGSAGGSA [r18_107_TrROS_Hall]”, the “folding stability dG unfold” value was found to be 1.8 ± 0.06 kcal/mol in data set [1], 3.98 ± 0.071 kcal/mol in data set [2] and 3.56 ± 0.12 kcal/mol in data set [3].
In the same order, the values of “SAGGKELVVLEVEIRVETEEEREKALEEAERLAQELAELFPDLKIVRVEVEVEERDGERVVRVRIVVESAGG [r13_305_TrROS_Hall]” are 4.4 ± 0.29 kcal/mol, 1.84 ± 0.12 kcal/mol and 4.24 ± 0.37 kcal/mol.
For “SAGGKKKKLVIKDKKTNKYYEIENAKEIVKIEKVKGKDGKTYYVIYFKKTKKKIVIKTKEDLEKALKSAGGS [r8_206_TrROS_Hall]”, the “folding stability dG unfold” value in data set [1] came to 1.26 ± 0.24 kcal/mol; in data set [2], 1.18 ± 0.38 kcal/mol; in data set [3], 1.23 ± 0.29 kcal/mol.
As for “SASESAVVEEEYTIDVTTVTPPGTPTTEPVRLTITRLPPNTVEVTLTAPDGKTVETRVIPLSVSLEELLSAG [r14_559_JUSTAS]”, the “folding stability dG unfold” value in data set [1] was determined as 0.413 ± 0.14 kcal/mol; in data set [2] it was 0.134 ± 0.3 kcal/mol; in data set [3] it was 0.493 ± 0.16 kcal/mol.
On to “SAMKPFPAKEAIEQILEEMEDMPLPPGQEEVEFQIRLPDDGAPVQISIERNPGKWKIEIYVGNKPIWITSAG [r14_199_TrROS]”, for which the “folding stability dG unfold” value in data set [1] stood at 1.7 ± 0.082 kcal/mol; in data set [2] it was 2.43 ± 0.14 kcal/mol; in data set [3] it was 2.05 ± 0.12 kcal/mol.
Turning to “SAMTEEEKKKKKEEEEKKKRELKIIVVAKTKDGKWKKIAEFTVKNKDMSIEELVKKLKDLGVEEVKIFPSAG [r14_318_TrROS_Hall]”, the “folding stability dG unfold” value in data set [1] was determined as 1.8 ± 0.082 kcal/mol; in data set [2], 3.09 ± 0.093 kcal/mol; in data set [3], 2.67 ± 0.26 kcal/mol.
In the same order, the values of “SAGGSAGGSAGGAPPPVEIEIEVVVRGPDGRLYAFRARATYDPETDELTIEIEVRELPPSAGGSAGGSAGGS [r10_1164_TrROS_Hall]” are 2.25 ± 0.1 kcal/mol, 4.34 ± 0.17 kcal/mol and 3.96 ± 0.22 kcal/mol.
For “SAGGSAGGSAKIWIILKDADEARDRIEELFGPGVRIEPVNIQRWDGKVYVMIEIEIPPNMTSAGGSAGGSAG [r3_87_TrROS]”, the entries for the “folding stability dG unfold” value in data set [1], in data set [2] and in data set [3] were 2.1 ± 0.055 kcal/mol, 2.4 ± 0.051 kcal/mol and 2.28 ± 0.054 kcal/mol, respectively.
As to “SKLVEKLAKELNIKKVEVLPDGTVKFTTKDGYVIKITIEKVEVVKKPDGKVIKKYKIKIEIKPLPPPEELSA [r9_648_TrROS_Hall]”, the “folding stability dG unfold” value was found to be 2.73 ± 0.14 kcal/mol in data set [1], 4.98 ± 0.1 kcal/mol in data set [2] and 4.27 ± 0.48 kcal/mol in data set [3].
Take “SAGGKLKTKIELFKGDDKEIIKSEHPDGGIGIADDDGEISEIIFFPDSGLVVVKLKNGKVVVLKAPKSAGGS [r16_602_TrMRF]”: the “folding stability dG unfold” value in data set [1] was determined as 0.434 ± 0.11 kcal/mol; in data set [2], 2.43 ± 0.11 kcal/mol; in data set [3] it was 1.85 ± 0.25 kcal/mol.
Taken in the same sequence, the figures for “SAPLLERLKELFPDAEIEVVEVEEVREVPPGRRVVRLTVRVRLPDGRVLRVELELRDGELVLRIELLPRSAG [r14_28_TrROS_Hall]” were 1.83 ± 0.049 kcal/mol, 4.94 ± 0.089 kcal/mol and 4.36 ± 0.15 kcal/mol.
For the sequence “SAGGSAGGSAGGITPEYVERARKEAQDQYPPGKEREIIIRNPDNGKEITIRYTPDKIEIMSAGGSAGGSAGG [r7_45_TrROS]”, the “folding stability dG unfold” value was 0.0182 ± 0.12 kcal/mol in data set [1], -0.289 ± 0.16 kcal/mol in data set [2] and -0.147 ± 0.24 kcal/mol in data set [3].
Taken in the same sequence, the figures for “SAGGSAGGSAKYIKFYVPADKMTVEEFAEFIRDELGIPGENIKIDEVEPSPNGWYRVTIKIPSAGGSAGGSA [r18_118_TrROS]” were 1.82 ± 0.036 kcal/mol, 3.886 ± 0.031 kcal/mol and 3.47 ± 0.07 kcal/mol.
With “SAGGSAGGSGVTIPIWYKMDPGQPVPTAEEIQNIINELGFPIKDIKVQYHPDNGYVRAEITVKSAGGSAGGS [r12_1052_TrROS]”, the “folding stability dG unfold” value in data set [1] was determined as 1.25 ± 0.048 kcal/mol; in data set [2], 0.828 ± 0.088 kcal/mol; in data set [3], 1.11 ± 0.17 kcal/mol.
As to “SYAFMIEVEYPDNGQEHTIPIPPDTLTIEINFKGPHEFRVEISWFDNGDIREQEREVTIPPPPPPPEDNKSA [r9_1067_TrROS]”, the “folding stability dG unfold” value amounted to 1.78 ± 0.22 kcal/mol in data set [1], 4.43 ± 0.2 kcal/mol in data set [2] and 3.51 ± 0.24 kcal/mol in data set [3].
In the case of “SAALTLPDGTVVPTGDVTFVPGTNTLVVTLPSGTVTLPLPPDWTVEFDAETNLLTVRPLPGPSPALAALPSA [r9_551_JUSTAS]”, the “folding stability dG unfold” value in data set [1] turned out to be 0.112 ± 0.15 kcal/mol; in data set [2], 2.13 ± 0.042 kcal/mol; in data set [3] it was 1.89 ± 0.14 kcal/mol.
Taken in the same sequence, the figures for “SAGGSAKEVKKITLEIEVNGKKLKIEVTYNKDNPKVTVKIYDKNGKLIKTKTMTLEELKKLLKELKSAGGSA [r15_940_TrROS_Hall]” were 2.13 ± 0.075 kcal/mol, 4.3 ± 0.057 kcal/mol and 3.84 ± 0.13 kcal/mol.
Taken in the same sequence, the figures for “SAGGSAGGSAGGPEGAVYRLGPDVVLVRLDARAYPVTAPNADGSTYEFTVLEVRVEVFPPSAGGSAGGSAGG [r7_764_TrMRF]” were 0.621 ± 0.068 kcal/mol, 3.743 ± 0.033 kcal/mol and 3.02 ± 0.15 kcal/mol.
Taken in the same sequence, the figures for “SMKYELKVEVEVEVKPDPVSGKVTVEFKVKVELYAVDPDGNKTKLSESEATLTVEADLEEAVELAELILDSA [r9_642_TrMRF]” were 1.97 ± 0.14 kcal/mol, 5.18 ± 0.52 kcal/mol and 4.84 ± 0.56 kcal/mol.
In the case of “SAGGNYFEITLKLERKFYRYRRDDPNGDPKPERYTVERELTIRVKMPPGFDSPEDMINWIKKALKKLSAGGS [r16_359_TrROS]”, the results for the “folding stability dG unfold” value in data set [1], in data set [2] and in data set [3] were 2.64 ± 0.11 kcal/mol, 4.67 ± 0.15 kcal/mol and 3.72 ± 0.22 kcal/mol, respectively.
Taken in the same sequence, the figures for “SAGGSAKKEVKVEIVSITYNPETGVIEIEIKADKPVDKIEITLPDGSKITFELLPDGKTIRMTIEPSAGGSA [r15_736_TrROS_Hall]” were 1.47 ± 0.14 kcal/mol, 3.53 ± 0.17 kcal/mol and 3.07 ± 0.24 kcal/mol.
Taken in the same sequence, the figures for “SAGGSAGGSAGGVPEDVIMSPVSTTLVEKEVLSTEVTPEGAPKTVEKVLIVEKTLEPLLSAGGSAGGSAGGS [r10_758_JUSTAS]” were 0.0499 ± 0.05 kcal/mol, -0.853 ± 0.24 kcal/mol and -0.429 ± 0.29 kcal/mol.
